The other results are listed elsewhere or left out.

Protein sequences, listed by entry. Tags and fused reporters are not part of them.
UniProt Q0JBA9, entry or part of it: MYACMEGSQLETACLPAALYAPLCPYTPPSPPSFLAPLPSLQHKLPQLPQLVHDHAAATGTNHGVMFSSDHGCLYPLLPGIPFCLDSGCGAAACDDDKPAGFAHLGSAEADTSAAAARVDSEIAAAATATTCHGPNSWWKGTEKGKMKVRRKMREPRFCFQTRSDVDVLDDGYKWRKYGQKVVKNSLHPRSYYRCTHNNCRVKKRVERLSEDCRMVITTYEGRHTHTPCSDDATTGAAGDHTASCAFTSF

This experiment has as its target OsWRKY34 (Oryza sativa, UniProt Q0JBA9 1-250). The experiment can be described thus: protein-binding microarray (RPBM); PBS, 2% BSA, 51.3 ng/ul salmon testes DNA, 50 uM zinc acetate, 200 nM TF, 25 C, 1 h; high values mean tight binding. Particulars: protein: recombinant; tags: N-terminal polyhistidine and DsRed monomer fusion (pET32a); label: CyDye5-dUTP incorporated in the synthesized complementary strand; 3' TTTTT single-stranded linker to array surface; dsDNA, one strand shown. The essentials:
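Transcription factors were made in E. coli BL21-CodonPlus as N-terminal fusions to a polyhistidine tag and DsRed, then purified on Ni–NTA. After primer extension with Cy5-dUTP and blocking with 2% BSA, a custom Agilent array was exposed for 1 h at 25 °C to 200 nM protein in PBS, 2% BSA, salmon testes DNA and 50 µM zinc acetate. Washed arrays were scanned on an Axon 4000B, and the binding signal is per-feature fluorescence intensity in arbitrary units.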
For “ACTCTCTCCGTTTCGAAATGTTTGACGCTGTTGACTTTTTCGGAGTCACCTAGTGCAG”, the binding signal is 17500 fluorescence intensity (a.u.). Turning to “CTTGACAAGTGGCATAAGATCGTTCATCATTACCCTTGACCGGAGTCACCTAGTGCAG”, the binding signal was 8290 fluorescence intensity (a.u.). Consider “CCGTCGCCGTGCCACCCACTCCACCATCAGTCCATCACATCGGAGTCACCTAGTGCAG”, for which the binding signal is 10400 fluorescence intensity (a.u.).

As to “TGGGTGACCAACACGTTCAGACCCATCATACCTCATTTATCGGAGTCACCTAGTGCAG”, the binding signal is 11000 fluorescence intensity (a.u.). In the case of “TCTCTCAATCTCTCGTTACTCACCAAGGGTCCAAGGTGACCGGAGTCACCTAGTGCAG”, the binding signal was 9270 fluorescence intensity (a.u.). With “GCCATCTCCAACGCGCCGTACCTCATGCTGGCCGCGGCCGCGGAGTCACCTAGTGCAG”, the binding signal was 8690 fluorescence intensity (a.u.). Take “TTTTGCCTTTCGCACGGATTTTCTGGCAAGCTTGTGATTCCGGAGTCACCTAGTGCAG”: the binding signal was 8460 fluorescence intensity (a.u.). “CAGTGCCATTTCTTTTCTCTGTTATATGTGTAGGCACCATCGGAGTCACCTAGTGCAG”: the binding signal is 11000 fluorescence intensity (a.u.).

Turning to “AAATGTTTCATATCCACACAACCCTTCTCGTCTCGTGTATCGGAGTCACCTAGTGCAG”, the binding signal is 9340 fluorescence intensity (a.u.). With “ACTTCTACTCCTACTTCCCTGTGTGGCCCACAGCTAGATACGGAGTCACCTAGTGCAG”, the binding signal was 10300 fluorescence intensity (a.u.). Consider “CATTATACATTATGATTTTTCATTATAACTTTTCTTTTCTCGGAGTCACCTAGTGCAG”, for which the binding signal was 9020 fluorescence intensity (a.u.). With “GGGTCGGCAATGAATATTTGTTCTCGAGTGACGTACAGCACGGAGTCACCTAGTGCAG” the figure was 11100 fluorescence intensity (a.u.); with “ACCAGAGCCAGCTGACTGCTAATACCCTTGCTTTGGCCAACGGAGTCACCTAGTGCAG”, 9570 fluorescence intensity (a.u.); with “TTCGCCTTCGCCTTCGTCTTCGTCTACCTCATCTTCGAAACGGAGTCACCTAGTGCAG”, 9330 fluorescence intensity (a.u.). Take “AGGTGTGCCAGATGGTTTCTCTGTTCCTCACCACAGCTCGCGGAGTCACCTAGTGCAG”: the binding signal is 8350 fluorescence intensity (a.u.).

As to “TCCTTGCCTCTCTCTCTTCTCCTTGTGTTGATAGCGAGAACGGAGTCACCTAGTGCAG”, the binding signal is 8560 fluorescence intensity (a.u.). The figure for “AACATTTGTTAAGTTTTTTTTATTGTGTCATATTTTCATCCGGAGTCACCTAGTGCAG” is 10100 fluorescence intensity (a.u.). Regarding “TAGAATCAAGAGTTTACACTTCCCATGTTGTACAGATTACCGGAGTCACCTAGTGCAG”, the binding signal was 8670 fluorescence intensity (a.u.). Turning to “TCTTGTGTGCATCCTCTCTCACCTTACAGTGCTTTTCGTTCGGAGTCACCTAGTGCAG”, the binding signal is 14500 fluorescence intensity (a.u.).

As to “GAGATTATCCGCCTAAGACTCAGTTTTTCTTCTTTTCCCTCGGAGTCACCTAGTGCAG”, the binding signal was 9120 fluorescence intensity (a.u.). The figure for “AGAAGAGGTCCCGTATTTACCACCACCGTTTTGACTCCTCCGGAGTCACCTAGTGCAG” is 9460 fluorescence intensity (a.u.); for “CCTTCCCACTCGTCAGAAGCATCCGCCGCCTACCTGCCAACGGAGTCACCTAGTGCAG” it is 9290 fluorescence intensity (a.u.); for “TTTGTTTTTTATTTTTTTTTGAATTCGGTCCATTTTTATTCGGAGTCACCTAGTGCAG” it is 9400 fluorescence intensity (a.u.). As to “CAGATATCTCTATTTACCTGCTACTCCTGAAGAGACTGGACGGAGTCACCTAGTGCAG”, the binding signal is 8460 fluorescence intensity (a.u.).

For “GAATCAGAATTCGGGCAAGCAACGTTTTTTTATTTCCGATCGGAGTCACCTAGTGCAG”, the binding signal was 8170 fluorescence intensity (a.u.).

With “ATAGTGCCAAGTCAATCATTTTTAACTTTGACTATTAATACGGAGTCACCTAGTGCAG”, the binding signal is 9950 fluorescence intensity (a.u.).

Consider “AAACCCTGCCATTGTTATCGAATTTGCAAGTGCATCCATACGGAGTCACCTAGTGCAG”, for which the binding signal was 8590 fluorescence intensity (a.u.). In the case of “ACTTTCCCACCACGTACGCCCGCCACTCGCGCCGTCCCCACGGAGTCACCTAGTGCAG”, the binding signal is 11500 fluorescence intensity (a.u.). As for “ATTGTTATGTTCCTTTGTTTTCTTATAAATATAATTTAATCGGAGTCACCTAGTGCAG”, the binding signal was 9560 fluorescence intensity (a.u.). “TTTTTCTCACTCCATTTCATCCAATCCATCCATTCATTTCCGGAGTCACCTAGTGCAG”: the binding signal was 10000 fluorescence intensity (a.u.). Turning to “CTCCTCCGCCGCCTCCACCGGCGGCACCTCCACCTGCACCCGGAGTCACCTAGTGCAG”, the binding signal was 8470 fluorescence intensity (a.u.). The figure for “ACCAATCTATGAAACATCATTCATACTTCCATATCTTATTCGGAGTCACCTAGTGCAG” is 8610 fluorescence intensity (a.u.). For “TTATTTTGCTCCTCACTTTTCTTCACTAGCTCAAACACTTCGGAGTCACCTAGTGCAG”, the binding signal was 10000 fluorescence intensity (a.u.).

Regarding “ATCGTGTGTGGTCTGCGCTGTGAATGTGTGAGAGAGATCTCGGAGTCACCTAGTGCAG”, the binding signal was 8480 fluorescence intensity (a.u.). Consider “TGTGGACAAAACCTCCGCTCCGATCTCGAGCACCACAAGTCGGAGTCACCTAGTGCAG”, for which the binding signal is 8030 fluorescence intensity (a.u.). For “AGCTTCCACCTCCTGATCCACCCGAACCCTAGAATCCACTCGGAGTCACCTAGTGCAG”, the binding signal is 8210 fluorescence intensity (a.u.). “TTCCAGTAATTAAACCATTTGTTCGAGCCTCATCGATTTCCGGAGTCACCTAGTGCAG”: the binding signal was 12100 fluorescence intensity (a.u.). For “ACCCCAACTCCGTCCAGGACTCCAACGCCGCCGTCCACTCCGGAGTCACCTAGTGCAG”, the binding signal is 10100 fluorescence intensity (a.u.).

As for “CGCTTCTCTCCCTGAGCTCGGCCTCGTGTCACTGACGTCGCGGAGTCACCTAGTGCAG”, the binding signal is 8120 fluorescence intensity (a.u.). Regarding “ACGCACCCGCGTTTCATTTCCATTTCCACCTCTTCTTCTCCGGAGTCACCTAGTGCAG”, the binding signal is 8820 fluorescence intensity (a.u.). For “CGTGTGCGGGTCATGCTTCCATAAATGACTTTTTACCTACCGGAGTCACCTAGTGCAG”, the binding signal was 9060 fluorescence intensity (a.u.). For the sequence “TTGGTTGTATTAAGGCTGTGTTTAGTTTCACGCTAAAATTCGGAGTCACCTAGTGCAG”, the binding signal was 11100 fluorescence intensity (a.u.).

These data come from paper PMC7819943, “Rice protein-binding microarrays: a tool to detect cis-acting elements near promoter regions in rice”.
